These results are taken from patent publication US20190374607A1.

These are yes or no findings as the source states them, for the method shown. Some entries that bind do so weakly or less than the wild type.

The target in the assay is CXCL121 monomer (constitutively monomeric CXCL12 variant, L55C/I58C) (Felis catus (Cat) (Felis silvestris catus)) (UniProt O62657). Briefly: 2D NMR.

For the substance “intact CXCR4 1-38 N-terminal domain (from UniProt P61073 1-38) (peptide)”, the binding entry is “binds”.
